Experimental data reported in PubChem BioAssay AID1347423 (Functional Genomics Laboratory (NCATS/FGL), 2020).
Out of some 52,000 sequences screened, about 210 (0.4%) were called active.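 The calls were made as follows: active = gene whose silencing raises cell survival under the drug, median off-target-corrected z-score across its silencing RNAs 2 or more; inactive = the rest.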 This is one part of the list.

Assay: Resistance to Poly (ADP-Ribose) Polymerase inhibitor: Gene Identification via Genome-wide siRNA Screen
Settings: mouse BRCA2 R2336H ES cells, olaparib, CellTiter-Glo viability; active compounds read high
Outline: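 Genome-wide siRNA screen (3 siRNAs/gene, 20 nM) in mouse ES cells carrying hypomorphic BRCA2 R2336H; olaparib 500 nM added 48 h post-transfection, CellTiter-Glo viability 72 h later. Normalized to plate-median negative control; MAD z-scores, gene median, seed-adjusted.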

Sequence | z-score
GCGGAUCAAUGUCUUGCCATT against Asl | inactive: 1.44
GCCACACAGUUUCAUCUCATT against Alg12 | inactive: 0.482
GGAACAAUCACACAAGCUGTT against Gsh2 | inactive: 0.562
GGCUGCUUAUUUCUGAAUCTT against Pcdha11 | inactive: 0.929
GGCAUUAUUAACAAGAUUGTT against Eif2b1 | inactive: -0.127
GGUAGAGAGACUGUAAUUATT against Ppp2r1b | inactive: -1.33
CGUAUACUGUGAUUGAUAUTT against Lcn5 | inactive: 0.502
GGUACUCAUCCCUUCCUGATT against Mc1r | inactive: -0.647
GGAACAUCUCUGAAUUAUGTT against Ndel1 | inactive: 0.872
GCUGUAUUGUGCAAAUGGCTT against Prkci | inactive: -0.617
GGCUAUCUAAUCUUCCCGGTT against D14Ertd231e | inactive: -0.304
GGAGGAUACCUUCUUCUACTT against Mta3 | inactive: 0.46
GCCUCCAUUAUUUGUUCUGTT against Olfr1058 | inactive: 0.218
GCUAUGCACUUUGUGGACCTT against Zpbp2 | inactive: 0.148
CCUCUAUGAGUGUAAACCATT against Crim1 | inactive: -0.379
GGCCAAGUCUCCAAUUCUATT against Zec | inactive: 0.595
CCUUCCUUCGAAUUCGCUCTT against Dncl2a | inactive: 0.404
GGACAGGAUGGAUGGAAGUTT against Ing5 | inactive: 0.353
GGGUUCGAGAAAAAAUUGATT against D19Ertd721e | inactive: -0.296
GGAAGGAGAAGAAAACAUATT against 2410016F19Rik | inactive: -2.83
GCAAGAUCUGUGUAAAUGGTT against Gpx4 | inactive: -3.27
GCAUGGGUGAUCUCUGUAATT against LOC387334 | inactive: -1.28
GGCUCUAAACAAAAUUCAGTT against Gtf2e2 | inactive: 0.522
GGUGUAAUUGGGAAAAUUCTT against Inpp5f | inactive: 0.585
GGACCAGGUUUGUUUUUUATT against Epb7.2 | inactive: 0.642
CGGUGCAUACUCAAUAAACTT against Spag11 | inactive: 0.592

4 entries from above, as labelled records:
GGAACAAUCACACAAGCUGTT against Gsh2
  z-score: inactive: 0.562
GGCAUUAUUAACAAGAUUGTT against Eif2b1
  z-score: inactive: -0.127
GGAAGGAGAAGAAAACAUATT against 2410016F19Rik
  z-score: inactive: -2.83
GCAUGGGUGAUCUCUGUAATT against LOC387334
  z-score: inactive: -1.28

The listing continues:

Sequence | z-score
GGUCUGAUUGUCCUCUCUUTT against AB041549 | inactive: -1.46
GGAAUUGGAUGCCAUCAUCTT against Tnnc2 | inactive: -1.07
GGCCAUUUCCGUUUUAGGATT against Olfr319 | inactive: -0.267
GGUGCAAGUUCGAACCAAGTT against Cdca8 | inactive: -1.24
GCGGCUUUGUAUACAAGUUTT against A830006F12Rik | inactive: -2.32
GGUCUUUCUAUACAUCCUATT against Qscn6 | inactive: 1.04
GGAAAUGAAGAGUGUUGAATT against Slc7a3 | inactive: -1.02
GGAAGCCAAAGGUCUCAACTT against 2300002G24Rik | inactive: -0.0255
GGAGGGAACAUGUGGAAGUTT against 2410091C18Rik | inactive: -0.903
GCUCUAUAAGCUAUCAGGGTT against Ntn1 | inactive: 0.616
CCAUCGGCGACUUGAAGAATT against Ubl5 | inactive: -3.34
GGCAAAAGAACAAAGAAAATT against Mrps5 | inactive: 0.603
GGGAUUCUAGACCAAUCCATT against 9130005N14Rik | inactive: 0.263
GCGUGUUGUGAUGUCACCUTT against D10Ertd214e | inactive: -2.79
GGUAGUGAGCAUUGAGAAGTT against Tbc1d8 | inactive: 0.895
GGACCACCUAAGUUUAAGCTT against Pde6g | active: 2.55
GGAAGAAUUUCUUGAGACATT against Gsta4 | inactive: 0.137
GGAGAGACAUCCAAAAGUATT against H60 | inactive: -0.237
GUCCCAACUCCGCUUUGUUTT against V1rc13 | inactive: -1.72
CGCCAAAAGUUCUUGCCAUTT against Olfr618 | inactive: 1.19
GGCUUUUGACUUCUUUGAGTT against Hs1bp3 | inactive: 0.298
GGCUCUUGGUCCAAUAAAATT against Zdhhc14 | inactive: 0.215
GUCACUGUGAUGGGAAAUUTT against Olfr895 | inactive: -0.545
GCUACUCAGUCAACUCAAGTT against Ppp1r14d | inactive: -0.141
GGGAGUUAUAUAAAUGCAUTT against Taf7l | inactive: 0.433
GCUCCAGGUCCUUAGAAUATT against Mod1 | inactive: 0.844

Sequence | z-score
GGACAUCUGGAUGUUCCCATT against BC023151 | inactive: -1.29
ACAUUCUUGGUUGAGUGCUTT against Olfr198 | inactive: 0.369
CGUGGUCAGGUUGUUUGAUTT against Cdk6 | inactive: 0.483
GGCAGCAAAAACAAGAGCCTT against Hmga2 | inactive: -0.353
GGAAGUUGAUAAGAGAGUGTT against 2410004I17Rik | inactive: -1.1
CGCACCCACCAUGUUUUAUTT against D930005D10Rik | inactive: 0.0158
GGACUCAGACAAGAUCUGCTT against Ctdsp1 | inactive: 0.818
GCAAACGUACCAUCUACACTT against Uckl1 | inactive: 1.49
GCACCUCCAGAAUGUUUUUTT against V1rc29 | inactive: 0.194
GGUUUAGGUUUCAUAAUCCTT against 2310008M10Rik | inactive: -0.66
GGGAAAUCUAUGGUGCUGUTT against Mpz | inactive: 3.3
GGAUUGGAACUAUUCUGUATT against Syvn1 | inactive: -0.223
GGUGACACAGGAGAAGAAGTT against LOC239447 | inactive: -0.522
CCAACGACAUGUACGACCUTT against Rest | inactive: 1.69
GCUCAUGUUGCACUGGAAATT against A430108B07Rik | inactive: 1.06
GGAUUUAAGAAUGAAUGCCTT against Kcnip4 | inactive: -0.00988
GCAAGAAGGUGAAGUGCAGTT against Fxyd7 | inactive: -1.28
CCAGCAUAUUGGAACUACUTT against Olfr986 | inactive: -1.37
CCGUAUCAUAACUAUCGCGTT against 5830416A07Rik | inactive: 0.84
CCUCUACCCAGAUUAUGCATT against Grik1 | inactive: 0.0227
GCGAAUAAGUAACUUGGUUTT against BC035537 | inactive: -0.632
GCCUCAUUUGCUUCACUGUTT against 5830411N06Rik | inactive: -0.489
GCUAUGACCAACCUAGAGATT against Sox5 | inactive: -0.676
GGUUGCUGUUGAUGUCAGCTT against AV125803 | inactive: -0.424
GCUCAACCUAACUUUGUGGTT against Ccdc3 | inactive: -1.01
CCCAGGCUAUUUCAACAAUTT against Arhgef11 | inactive: 2.14

Sequence | z-score
GGUCACCGUCAAGUACGACTT against Ppp1r14b | inactive: 0.307
GGGAUGAUCUUAUAUGCUUTT against AA792892 | inactive: 2.04
CCGUAGUAUCCACUGAUUGTT against Olfr1322 | inactive: -0.989
GGGUUUUAUGACCUUCAAGTT against Zfp99 | inactive: -1.02
GGCUCUUAAUUGCUGAGUUTT against Acadl | inactive: -0.249
GCGUCUUAUAUGGGUGGCUTT against Olfr1016 | inactive: -1.81
GGUUUUUAGCCUGAGUGAGTT against Olfr688 | inactive: 0.928
GGGCAUCGCUUUGAGAGUATT against Srprb | inactive: -0.649
CGUGAGGGUCAACUUCUUCTT against 1810063P04Rik | inactive: -1.9
GGCUUAUGACCAUGACAGCTT against Odz2 | inactive: -0.359
CCCUAAUUUAUUCUCGGCGTT against 5-Sep | inactive: 0.142
GGGCCAUAUGUCUUUGCUATT against Olfr998 | inactive: -0.7
GCUGGUGUCUCAGAUCUCATT against LOC544763 | inactive: 0.117
GGCUUUUAACACCUUCAUUTT against C130052I12Rik | inactive: 0.512
GCAUACGGAAUCUUUACGGTT against Accn2 | inactive: 0.872
GGAAUUAUGGAUUGUUAAGTT against Olfr212 | inactive: -0.522
GGUCAGCGAACCACGAUAATT against Olfr314 | inactive: -1.46
GGUCCAGAUCCACCAGAUUTT against Banp | inactive: -2.93
GCGAAUCACCACCAUCACATT against Pcbp4 | inactive: -0.979
GGCGAUCUAUCACACUGUGTT against Chst7 | inactive: 1.39
CGAUUGCUAAGGUGUUUGATT against Sfmbt1 | inactive: -0.918
GGAAACUGUACAGAUAUUGTT against Fbn2 | inactive: 0.52
GCACAUUGGGAUAGCUGCATT against 4732463G12Rik | inactive: -1.93
GCAGGAAUCUAAUCUGCUGTT against Gpd1 | inactive: 0.333
GCAUUGUCGUGUCUUCUCUTT against 2610036D13Rik | inactive: -2.48
GAUAUAAUUACUGAACCACTT against 4930481M05 | inactive: 0.66

Four entries picked at random from those above:
Sequence | z-score
GGAAUUAUGGAUUGUUAAGTT against Olfr212 | inactive: -0.522
GCAGGAAUCUAAUCUGCUGTT against Gpd1 | inactive: 0.333
GGCUUUUAACACCUUCAUUTT against C130052I12Rik | inactive: 0.512
GCGAAUCACCACCAUCACATT against Pcbp4 | inactive: -0.979
